This is one part of the list.

Protein sequences, listed by entry. Tags and fused reporters are not part of them. Lines headed by an entry give the natural chain unless they say otherwise; changes in a name come on top.
UniProt Q9UBB6: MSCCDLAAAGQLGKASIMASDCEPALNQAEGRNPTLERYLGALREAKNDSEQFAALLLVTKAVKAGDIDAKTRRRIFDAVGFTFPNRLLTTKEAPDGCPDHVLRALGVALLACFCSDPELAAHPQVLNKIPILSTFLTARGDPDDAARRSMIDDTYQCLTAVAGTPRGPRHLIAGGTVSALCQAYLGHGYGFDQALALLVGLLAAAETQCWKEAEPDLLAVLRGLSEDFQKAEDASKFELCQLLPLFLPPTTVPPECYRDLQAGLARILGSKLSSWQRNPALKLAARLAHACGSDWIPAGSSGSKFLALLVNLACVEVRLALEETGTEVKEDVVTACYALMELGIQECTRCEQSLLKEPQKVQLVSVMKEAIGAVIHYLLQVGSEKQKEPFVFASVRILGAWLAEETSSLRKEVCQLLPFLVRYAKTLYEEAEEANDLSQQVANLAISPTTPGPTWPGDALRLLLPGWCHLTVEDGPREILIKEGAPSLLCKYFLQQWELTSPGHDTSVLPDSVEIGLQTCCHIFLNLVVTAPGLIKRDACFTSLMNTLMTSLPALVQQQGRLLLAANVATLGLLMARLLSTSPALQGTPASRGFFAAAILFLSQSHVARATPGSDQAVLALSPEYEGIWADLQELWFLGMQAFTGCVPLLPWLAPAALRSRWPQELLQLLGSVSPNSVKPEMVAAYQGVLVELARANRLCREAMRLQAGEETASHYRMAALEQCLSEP
UniProt Q99733: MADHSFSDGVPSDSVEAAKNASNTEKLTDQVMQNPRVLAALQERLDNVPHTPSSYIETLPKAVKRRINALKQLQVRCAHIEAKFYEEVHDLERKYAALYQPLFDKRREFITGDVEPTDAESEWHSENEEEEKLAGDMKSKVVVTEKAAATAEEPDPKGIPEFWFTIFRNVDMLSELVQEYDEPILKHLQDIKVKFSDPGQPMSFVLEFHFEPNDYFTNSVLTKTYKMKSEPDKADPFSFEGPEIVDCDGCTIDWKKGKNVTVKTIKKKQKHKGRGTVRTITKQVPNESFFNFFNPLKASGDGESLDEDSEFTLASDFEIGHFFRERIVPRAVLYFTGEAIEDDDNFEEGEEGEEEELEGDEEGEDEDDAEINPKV
UniProt Q969V5: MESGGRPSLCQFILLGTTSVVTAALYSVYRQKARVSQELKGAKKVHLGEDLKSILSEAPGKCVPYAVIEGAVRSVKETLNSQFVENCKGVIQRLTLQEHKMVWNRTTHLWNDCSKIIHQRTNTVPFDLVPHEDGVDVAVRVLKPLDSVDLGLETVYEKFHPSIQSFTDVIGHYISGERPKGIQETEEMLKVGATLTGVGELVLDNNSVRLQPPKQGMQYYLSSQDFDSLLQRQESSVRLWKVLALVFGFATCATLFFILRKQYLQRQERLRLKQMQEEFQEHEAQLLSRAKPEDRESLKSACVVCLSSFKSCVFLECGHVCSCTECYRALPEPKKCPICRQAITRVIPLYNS
UniProt P56181: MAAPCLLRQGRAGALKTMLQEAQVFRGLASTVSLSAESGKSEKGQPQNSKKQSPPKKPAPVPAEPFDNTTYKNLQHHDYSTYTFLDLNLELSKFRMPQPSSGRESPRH
UniProt P46934: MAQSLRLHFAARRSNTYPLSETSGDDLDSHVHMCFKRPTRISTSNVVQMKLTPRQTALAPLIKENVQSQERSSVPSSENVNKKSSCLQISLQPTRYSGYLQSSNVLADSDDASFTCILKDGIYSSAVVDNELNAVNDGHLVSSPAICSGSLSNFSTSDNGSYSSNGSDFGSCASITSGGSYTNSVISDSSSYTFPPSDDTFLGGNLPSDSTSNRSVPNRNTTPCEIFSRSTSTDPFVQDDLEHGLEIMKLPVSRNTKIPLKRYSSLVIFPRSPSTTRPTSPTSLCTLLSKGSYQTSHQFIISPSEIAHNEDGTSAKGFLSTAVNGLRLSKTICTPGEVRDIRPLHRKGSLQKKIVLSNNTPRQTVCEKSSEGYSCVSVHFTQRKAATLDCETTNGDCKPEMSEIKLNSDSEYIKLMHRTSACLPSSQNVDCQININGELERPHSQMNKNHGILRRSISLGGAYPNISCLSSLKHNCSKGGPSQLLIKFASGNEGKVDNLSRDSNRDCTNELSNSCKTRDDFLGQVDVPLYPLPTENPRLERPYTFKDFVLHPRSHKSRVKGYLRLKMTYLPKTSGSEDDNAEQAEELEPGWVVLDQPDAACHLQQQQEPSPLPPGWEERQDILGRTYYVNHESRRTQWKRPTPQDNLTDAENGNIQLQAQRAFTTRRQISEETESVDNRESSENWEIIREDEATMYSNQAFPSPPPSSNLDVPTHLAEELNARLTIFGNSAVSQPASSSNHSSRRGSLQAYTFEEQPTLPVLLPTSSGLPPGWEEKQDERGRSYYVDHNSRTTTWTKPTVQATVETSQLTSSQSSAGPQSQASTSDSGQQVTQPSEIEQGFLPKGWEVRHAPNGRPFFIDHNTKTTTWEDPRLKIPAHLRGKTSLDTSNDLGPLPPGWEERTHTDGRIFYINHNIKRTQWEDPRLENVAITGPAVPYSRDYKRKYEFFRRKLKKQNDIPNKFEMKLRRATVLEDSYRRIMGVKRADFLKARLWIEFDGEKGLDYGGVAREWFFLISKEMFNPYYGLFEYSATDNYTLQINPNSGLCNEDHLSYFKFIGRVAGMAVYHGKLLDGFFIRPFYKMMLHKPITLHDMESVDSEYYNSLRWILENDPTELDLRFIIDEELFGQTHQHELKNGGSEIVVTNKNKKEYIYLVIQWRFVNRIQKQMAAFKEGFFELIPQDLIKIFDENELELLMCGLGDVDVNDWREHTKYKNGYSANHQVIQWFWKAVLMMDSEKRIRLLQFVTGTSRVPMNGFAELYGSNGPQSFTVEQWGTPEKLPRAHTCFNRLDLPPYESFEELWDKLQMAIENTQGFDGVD
UniProt P43490: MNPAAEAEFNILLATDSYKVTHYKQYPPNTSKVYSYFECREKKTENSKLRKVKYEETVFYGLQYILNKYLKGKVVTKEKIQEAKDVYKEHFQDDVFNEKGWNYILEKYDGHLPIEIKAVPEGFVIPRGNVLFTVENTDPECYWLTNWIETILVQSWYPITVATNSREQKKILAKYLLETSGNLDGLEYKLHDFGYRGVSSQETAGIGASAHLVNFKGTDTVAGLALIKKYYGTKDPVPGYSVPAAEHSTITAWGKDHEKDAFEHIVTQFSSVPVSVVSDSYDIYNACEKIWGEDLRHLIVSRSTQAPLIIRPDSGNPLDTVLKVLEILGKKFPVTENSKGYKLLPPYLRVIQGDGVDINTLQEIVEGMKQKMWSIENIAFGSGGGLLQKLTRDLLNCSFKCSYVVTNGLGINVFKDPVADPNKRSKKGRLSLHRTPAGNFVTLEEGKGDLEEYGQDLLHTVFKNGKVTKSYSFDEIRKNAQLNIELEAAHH
UniProt Q9NVX2: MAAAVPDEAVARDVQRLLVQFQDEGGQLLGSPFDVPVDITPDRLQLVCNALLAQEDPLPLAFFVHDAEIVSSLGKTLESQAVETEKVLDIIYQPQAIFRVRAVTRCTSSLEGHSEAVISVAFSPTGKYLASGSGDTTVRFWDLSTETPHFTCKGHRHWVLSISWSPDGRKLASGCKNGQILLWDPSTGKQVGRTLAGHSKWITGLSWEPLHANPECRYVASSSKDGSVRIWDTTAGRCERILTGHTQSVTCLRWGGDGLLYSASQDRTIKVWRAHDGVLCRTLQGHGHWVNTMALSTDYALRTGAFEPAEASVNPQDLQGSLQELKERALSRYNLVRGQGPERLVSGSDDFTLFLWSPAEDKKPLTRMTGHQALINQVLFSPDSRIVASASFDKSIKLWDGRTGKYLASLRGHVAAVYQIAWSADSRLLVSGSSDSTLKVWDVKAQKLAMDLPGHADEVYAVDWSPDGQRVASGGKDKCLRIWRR
UniProt O75438, whole entry: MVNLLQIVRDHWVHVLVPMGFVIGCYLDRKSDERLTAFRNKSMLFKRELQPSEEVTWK
UniProt Q96QG7: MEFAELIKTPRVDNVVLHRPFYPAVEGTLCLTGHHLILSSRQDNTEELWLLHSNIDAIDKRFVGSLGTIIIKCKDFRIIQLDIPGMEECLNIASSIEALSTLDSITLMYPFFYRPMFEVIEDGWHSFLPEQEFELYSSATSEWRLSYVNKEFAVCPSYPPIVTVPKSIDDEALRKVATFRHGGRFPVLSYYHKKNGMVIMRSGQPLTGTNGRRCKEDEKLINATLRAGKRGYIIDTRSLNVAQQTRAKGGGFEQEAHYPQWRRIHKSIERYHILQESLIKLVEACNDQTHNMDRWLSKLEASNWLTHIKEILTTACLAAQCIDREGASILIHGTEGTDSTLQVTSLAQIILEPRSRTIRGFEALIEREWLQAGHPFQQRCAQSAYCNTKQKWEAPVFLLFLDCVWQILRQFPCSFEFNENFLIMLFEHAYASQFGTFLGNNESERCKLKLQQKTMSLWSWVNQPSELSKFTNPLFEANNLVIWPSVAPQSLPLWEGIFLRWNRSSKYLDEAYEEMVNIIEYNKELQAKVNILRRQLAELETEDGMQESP
UniProt O43676, whole entry: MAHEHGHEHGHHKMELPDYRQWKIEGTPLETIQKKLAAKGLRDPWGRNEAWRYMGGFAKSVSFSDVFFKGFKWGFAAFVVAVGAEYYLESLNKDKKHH
UniProt Q96Q05, whole entry: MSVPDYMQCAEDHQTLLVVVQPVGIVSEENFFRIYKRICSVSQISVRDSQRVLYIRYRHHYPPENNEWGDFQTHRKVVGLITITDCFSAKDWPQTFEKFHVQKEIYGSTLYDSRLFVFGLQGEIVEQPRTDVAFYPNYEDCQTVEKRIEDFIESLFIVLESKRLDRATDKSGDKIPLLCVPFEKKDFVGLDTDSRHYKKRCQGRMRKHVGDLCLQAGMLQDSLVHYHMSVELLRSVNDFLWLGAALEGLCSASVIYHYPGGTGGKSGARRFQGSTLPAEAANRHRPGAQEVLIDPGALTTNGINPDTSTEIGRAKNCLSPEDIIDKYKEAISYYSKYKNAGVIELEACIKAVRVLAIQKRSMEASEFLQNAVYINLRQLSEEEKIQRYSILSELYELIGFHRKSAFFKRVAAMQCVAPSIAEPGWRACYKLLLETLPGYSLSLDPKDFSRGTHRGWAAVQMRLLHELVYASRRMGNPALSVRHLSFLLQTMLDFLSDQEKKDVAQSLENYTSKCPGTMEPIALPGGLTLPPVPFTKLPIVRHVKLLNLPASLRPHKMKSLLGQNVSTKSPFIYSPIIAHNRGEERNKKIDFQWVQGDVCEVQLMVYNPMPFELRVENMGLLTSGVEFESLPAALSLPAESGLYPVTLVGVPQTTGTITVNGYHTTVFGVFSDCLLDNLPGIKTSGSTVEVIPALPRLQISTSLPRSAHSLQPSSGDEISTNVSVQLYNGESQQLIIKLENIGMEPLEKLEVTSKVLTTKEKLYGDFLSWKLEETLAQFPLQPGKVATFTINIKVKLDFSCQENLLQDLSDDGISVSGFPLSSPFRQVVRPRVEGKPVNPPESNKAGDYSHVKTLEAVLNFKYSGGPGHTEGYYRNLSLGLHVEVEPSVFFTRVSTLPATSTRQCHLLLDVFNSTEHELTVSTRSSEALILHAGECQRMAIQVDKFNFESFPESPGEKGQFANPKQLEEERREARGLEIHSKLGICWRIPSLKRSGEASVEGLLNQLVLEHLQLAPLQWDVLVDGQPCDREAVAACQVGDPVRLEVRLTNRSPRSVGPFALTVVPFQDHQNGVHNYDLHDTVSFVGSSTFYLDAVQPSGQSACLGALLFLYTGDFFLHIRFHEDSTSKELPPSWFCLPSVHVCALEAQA
UniProt P23511, whole entry: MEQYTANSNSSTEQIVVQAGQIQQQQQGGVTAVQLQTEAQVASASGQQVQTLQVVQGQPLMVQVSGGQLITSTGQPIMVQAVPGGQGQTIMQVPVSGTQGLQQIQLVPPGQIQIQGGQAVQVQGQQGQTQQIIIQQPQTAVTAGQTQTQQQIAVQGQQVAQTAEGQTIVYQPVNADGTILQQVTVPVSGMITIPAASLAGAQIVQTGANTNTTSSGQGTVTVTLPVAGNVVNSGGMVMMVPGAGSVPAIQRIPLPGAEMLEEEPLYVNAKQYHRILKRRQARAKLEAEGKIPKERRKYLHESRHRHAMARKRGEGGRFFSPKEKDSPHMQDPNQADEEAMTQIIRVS
UniProt Q9BVI4: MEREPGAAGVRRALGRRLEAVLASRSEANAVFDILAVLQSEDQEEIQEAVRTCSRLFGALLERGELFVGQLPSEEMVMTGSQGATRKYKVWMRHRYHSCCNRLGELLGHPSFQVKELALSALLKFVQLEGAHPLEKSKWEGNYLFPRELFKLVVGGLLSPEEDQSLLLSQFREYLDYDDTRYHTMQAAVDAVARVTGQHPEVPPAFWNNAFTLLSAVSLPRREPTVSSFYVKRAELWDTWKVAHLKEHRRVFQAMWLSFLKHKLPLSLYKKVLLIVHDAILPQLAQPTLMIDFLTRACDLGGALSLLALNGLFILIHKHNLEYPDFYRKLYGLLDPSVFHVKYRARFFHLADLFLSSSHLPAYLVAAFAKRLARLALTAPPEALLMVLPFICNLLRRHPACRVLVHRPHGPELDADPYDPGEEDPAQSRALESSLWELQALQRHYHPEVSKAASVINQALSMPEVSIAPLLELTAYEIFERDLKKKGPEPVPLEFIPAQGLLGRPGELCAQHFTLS

Compound in this assay: COc1ccc(Cn2ccc3ccc(C(=O)NO)cc32)cc1
Put plainly: dose-dependent thermal stabilisation call (2D-TPP, DLPTP, 10% FDR) (binary (1 = stabilised)); higher = stabilised by the compound. The settings on record: system: HL-60 intact cells; concentration range 0.04-10 µM.
NCDN (UniProt Q9UBB6): the “dose-dependent thermal stabilisation call” value is inactive: 0.

In the case of MTHFD1L (UniProt Q6UB35), the “dose-dependent thermal stabilisation call” value was inactive: 0.

Turning to MSH3 (UniProt P20585), the “dose-dependent thermal stabilisation call” value is inactive: 0.

As to NAP1L4 (UniProt Q99733), the “dose-dependent thermal stabilisation call” value is inactive: 0.

With NAAA (UniProt Q02083), the “dose-dependent thermal stabilisation call” value was inactive: 0.

With MUL1 (UniProt Q969V5), the “dose-dependent thermal stabilisation call” value is inactive: 0.

Consider MRPS7 (UniProt Q9Y2R9), for which the “dose-dependent thermal stabilisation call” value was inactive: 0.

Take MYD88 (UniProt Q99836): the “dose-dependent thermal stabilisation call” value was inactive: 0.

For the target NIT2 (UniProt Q9NQR4), the “dose-dependent thermal stabilisation call” value is inactive: 0.

With NDUFV3 (UniProt P56181), the “dose-dependent thermal stabilisation call” value was inactive: 0.

As to MUT (UniProt P22033), the “dose-dependent thermal stabilisation call” value is inactive: 0.

Consider NEU1 (UniProt Q99519), for which the “dose-dependent thermal stabilisation call” value is inactive: 0.

With MUTED (UniProt Q8TDH9), the “dose-dependent thermal stabilisation call” value was inactive: 0.

For the target NEDD4 (UniProt P46934), the “dose-dependent thermal stabilisation call” value was inactive: 0.

Take NAMPT (UniProt P43490): the “dose-dependent thermal stabilisation call” value is inactive: 0.

For the target NLE1 (UniProt Q9NVX2), the “dose-dependent thermal stabilisation call” value is inactive: 0.

For NIP7 (UniProt Q9Y221), the “dose-dependent thermal stabilisation call” value is inactive: 0.

NDUFB1 (UniProt O75438): the “dose-dependent thermal stabilisation call” value is inactive: 0.

MTHFS (UniProt P49914): the “dose-dependent thermal stabilisation call” value was inactive: 0.

On to NDUFS2 (UniProt O75306), for which the “dose-dependent thermal stabilisation call” value was inactive: 0.

Consider NPLOC4 (UniProt Q8TAT6), for which the “dose-dependent thermal stabilisation call” value was inactive: 0.

NCAPD3 (UniProt P42695): the “dose-dependent thermal stabilisation call” value was inactive: 0.

In the case of MTMR9 (UniProt Q96QG7), the “dose-dependent thermal stabilisation call” value is inactive: 0.

As to MTHFD2 (UniProt P13995), the “dose-dependent thermal stabilisation call” value is inactive: 0.

For the target NCOA5 (UniProt Q9HCD5), the “dose-dependent thermal stabilisation call” value was inactive: 0.

Regarding NBEA (UniProt Q8NFP9), the “dose-dependent thermal stabilisation call” value is inactive: 0.

Take MYCBP2 (UniProt O75592): the “dose-dependent thermal stabilisation call” value was inactive: 0.

As for NDUFB8 (UniProt O95169), the “dose-dependent thermal stabilisation call” value was inactive: 0.

For NCAPG2 (UniProt Q86XI2), the “dose-dependent thermal stabilisation call” value was inactive: 0.

As to NDUFB3 (UniProt O43676), the “dose-dependent thermal stabilisation call” value was inactive: 0.

Consider NEU3 (UniProt Q9UQ49), for which the “dose-dependent thermal stabilisation call” value was inactive: 0.

NAT1 (UniProt P18440): the “dose-dependent thermal stabilisation call” value was inactive: 0.

For NIBP (UniProt Q96Q05), the “dose-dependent thermal stabilisation call” value was inactive: 0.

As for MTP18 (UniProt Q9UDX5), the “dose-dependent thermal stabilisation call” value is inactive: 0.

Regarding NPM3 (UniProt O75607), the “dose-dependent thermal stabilisation call” value is inactive: 0.

With NHLRC2 (UniProt Q8NBF2), the “dose-dependent thermal stabilisation call” value was inactive: 0.

With NFYA (UniProt P23511), the “dose-dependent thermal stabilisation call” value is inactive: 0.

With NOC4L (UniProt Q9BVI4), the “dose-dependent thermal stabilisation call” value was inactive: 0.

The record behind these values is the supplement of paper PMC7666118.
